Key:
[1] = Bead loss in flow cells during sequencing runs (reliability); settings: for bead loss (share of flow cells): other runs (data not shown): gallic acid 11 of 31 flow cells, IPA 0 of 44 flow cells
[2] = system: clonally amplified gene panel beads (NA12878 barcoded library, 101X gene panel); assay: Sequencing-by-synthesis performance with scavenger in cleave reagent (IPA versus gallic acid, system and application KPIs); settings: gallic acid as benchmark cleave additive
[3] = comparative statistics: IPA across 90 flow cells, gallic acid across 30 flow cells

Row | SMILES | flow cells showing bead loss ([1]; GDP4 testing, fifteen (15) flow cells) | bead loss rate ([1]; IPA guardbanding, one (1) of sixteen (16) flow cells) | bead loss rate [1, 3] | bead loss (share of flow cells) [1] | flow cells with bead loss ([1]; other runs, out of fifty (50) flow cells) | bead loss in affected flow cell ([1]; GDP4 testing, one (1) out of seven (7) flow cells) | failure rate ([1]; preliminary gallic acid assays) | filtered trimmed sequence output [2]
1 | O=C(O)CCc1c[nH]c2ccccc12 [IPA, indole-3-propionic acid] | no flow cells showed any bead loss | 6% | 0% | 0% | 0 | – | – | –
2 | O=C(O)c1cc(O)c(O)c(O)c1 [gallic acid, reference compound] | – | – | 30% | ~35% | – | ~30% | 10-15% | 1 Gb
